Results reported in patent US20120237563A1, “CONTROLLED-RELEASE FORMULATIONS OF […] AND USES THEREOF” (UNIVERSITY OF FLORIDA RESEARCH […]., priority 2009, published 2012).
At least one structure is not confirmed: it was looked up by name or label, or the drawing left a doubt.

Protein sequences, listed by entry. Tags and fused reporters are not part of them. Residues count along the entry.
UniProt Q05941, 23-502: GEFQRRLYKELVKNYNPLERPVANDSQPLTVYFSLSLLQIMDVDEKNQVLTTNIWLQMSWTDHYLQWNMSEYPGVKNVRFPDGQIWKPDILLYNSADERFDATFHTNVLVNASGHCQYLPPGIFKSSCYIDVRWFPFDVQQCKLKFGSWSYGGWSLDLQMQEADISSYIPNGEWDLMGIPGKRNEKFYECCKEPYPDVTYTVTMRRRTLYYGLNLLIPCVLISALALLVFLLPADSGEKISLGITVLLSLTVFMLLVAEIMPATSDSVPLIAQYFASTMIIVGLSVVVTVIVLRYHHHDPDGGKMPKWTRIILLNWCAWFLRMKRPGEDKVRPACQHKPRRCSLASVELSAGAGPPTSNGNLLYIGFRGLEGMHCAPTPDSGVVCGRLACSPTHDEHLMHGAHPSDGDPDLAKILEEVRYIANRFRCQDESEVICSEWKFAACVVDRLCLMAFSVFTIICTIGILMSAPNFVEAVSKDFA
UniProt P36544, 23-502: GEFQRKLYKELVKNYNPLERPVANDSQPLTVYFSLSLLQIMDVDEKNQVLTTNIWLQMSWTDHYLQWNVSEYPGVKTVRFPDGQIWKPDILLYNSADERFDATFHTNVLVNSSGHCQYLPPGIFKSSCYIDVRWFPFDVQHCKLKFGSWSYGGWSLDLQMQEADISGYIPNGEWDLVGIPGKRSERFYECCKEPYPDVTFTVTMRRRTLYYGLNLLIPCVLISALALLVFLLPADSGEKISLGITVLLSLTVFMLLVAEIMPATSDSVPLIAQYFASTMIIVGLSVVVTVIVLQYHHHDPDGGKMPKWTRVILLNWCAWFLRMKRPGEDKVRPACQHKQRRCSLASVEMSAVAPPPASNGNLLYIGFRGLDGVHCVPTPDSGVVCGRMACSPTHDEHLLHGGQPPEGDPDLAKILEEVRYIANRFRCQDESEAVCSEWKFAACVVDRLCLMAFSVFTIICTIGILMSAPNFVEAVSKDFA

Columns and labels:
[1] = HPLC of the final samples of the capsule dissolution medium; format: physicochemical; conditions: HPLC on each of the four final samples of the dissolution medium
rat alpha7 receptor = rat alpha7 receptor (Rattus norvegicus, UniProt Q05941); conditions: cited from earlier work
human alpha7 receptor = human alpha7 receptor (Homo sapiens, UniProt P36544); conditions: cited from earlier work

## COc1ccc(/C=C2\CCCN=C2c2cccnc2)c(OC)c1 [DMXBA, 3-(2,4-dimethoxybenzylidene)-anabaseine]
[1]
  Change of DMXBA during the release process or after formulation with the CR material: did not change
Rat alpha7 receptor
  Efficacy (maximum effect) relative to acetylcholine and anabaseine: 59%
Human alpha7 receptor
  Efficacy, of the acetylcholine maximal response: 23%
